Source: patent publication US20230035403A1, “Method For Determining Responsiveness To Prostate Cancer Treatment” (Janssen Biotech, Inc., priority 2020, published 2023)
The expression values are mRNA levels of the gene; the protein chain is shown to identify it.

Assay: Expression profiling of prostate neoantigens in tumor and normal tissues (qPCR, Fluidigm Biomark)
Parameters: species or system human
Settings: for qPCR Relative Average Ct: FFPE prostate cancer samples; for qPCR % Positive FFPE: about 90 FFPE tissue samples from prostate cancer; for qPCR Normal Tissue Expression: panel of normal tissues

| Sequence | qPCR Relative Average Ct | qPCR % Positive FFPE [%] | qPCR Normal Tissue Expression |
| --- | --- | --- | --- |
| CEERGAAGSLISCE [FUS6] | 11 | 19 | None |
| CGASACDVSLIAMDSA [FUS1] | 9 | 72 | Prostate |
| DGHSYTSKVNCLLLQDGFHGCVSITGAAGRRNLSIFLFLMLCKLEFHAC [AS55] | 8.2 | 83.3 | Prostate |
| DYWAQKEKGSSSFLRPSC [AS7] | 11.0 | 57.8 | None |
| DYWAQKEKISIPRTHLC [AS6] | 10.0 | 33.3 | None |
| EAFQRAAGEGGPGRGGARRGARVLQSPFCRAGAGEWLGHQSLR [AS41] | 11.6 | 45.6 | Ovary |
| FKKFDGPCGERGGGRTARALWARGDSVLTPALDPQTPVRAPSLTRAAAAV [AS47] | 12.3 | 16.7 | Ovary |
| GMECTLGQVGAPSPRREEDGWRGGHSRFKADVPAPQGPCWGGQPGSAPSSAPPEQSLLD [AS51] | 10.5 | 47.8 | Ovary |
| GNTTLQQLGEASQAPSGSLIPLRLPLLWEVRG [AS16] | 10.8 | 47.8 | Ovary |
| GVPGDSTRRAVRRMNTF [Neoantigen P16] | 9 | 76 | Prostate |
| HVVGYGHLDTSGSSSSSSWP [FUS15] | 13 | 8 | None |
| HYKLIQQPISLFSITDRLHKTFSQLPSVHLCSITFQWGHPPIFCSTNDICVTANFCISVTFLKPCFLLHEASASQ [MS1] |  |  | None |
| KIQNKNCPD [AS23] | 13.0 | 22.0 | Ovary, Prostate, |
| KMHFSLKEHPPPPCPP [FUS19] | 13 | 4 | None |
| KRSFAVTERII [AS13] | 11.1 | 21.1 | None |
| LVLGVLSGHSGSRL [AS8] | 12.5 | 13.3 | None |

| Sequence | qPCR Relative Average Ct | qPCR % Positive FFPE [%] | qPCR Normal Tissue Expression |
| --- | --- | --- | --- |
| NSKMALNSEALSVVSE [FUS5] | 7 | 14 | None |
| NSKMALNSLNSIDDAQLTRIAPPRSHCCFWEVNAP [Neoantigen P35] | 13 | 5 | None |
| QWQHYHRSGEAAGTPLWRPTRN [AS19] | 6.3 | 95.6 | Ovary, Prostate |
| RTALTHNQDFSIYRLCCKRGSLCHASQARSPAFPKPVRPLPAPITRITPQLGGQSDSSQPLLTTGRPQGWQDQALRHTQQASPASCATITIPIHSAALGDHSGDPGPAWDTCPPLPLTTLIPRAPPPYGDSTARSWPSRCGPLG [MS3] |  |  | None |
| SLYHREKQLIAMDSAI [Neoantigen P22] | 9 | 70 | Prostate |
| TEISCCTLSSEENEYLPRPEWQLQ [FUS3] | 11 | 43 | Prostate |
| TEYNQKLQVNQFSESK [FUS2] | 11 | 55 | Mammary Gland |
| TGGKSTCSAPGPQSLPSTPFSTYPQWVILITEL [AS57] | 7.9 | 83.3 | Prostate |
| TMPAILKLQKNCLLSL [MS8] |  |  | None |
| VAMMVPDRQVHYDFGL [AS3] | 10.8 | 26.7 | None |
| VLRFLDLKVRYLHS [AS15] | 11.4 | 68.9 | Ovary, Mammary |
| WKFEMSYTVGGPPPHVHARPRHWKTDR [AS18] | 6.3 | 95.6 | Ovary, Prostate |
| YAYKDFLWCFPFSLVFLQEIQICCHVSCLCCICCSTRICLGCLLELFLSRALRALHVLWNGFQLHCQ [MS6] |  |  | None |
| YEAGMTLGEKFRVGNCKHLKMTRP [Neoantigen P82] | 11 | 37.0 |  |
| YEAGMTLGGKILFFLFLLLPLSPFSLIF [Neoantigen P87] | 8.3 | 85.6 | Ovary, Prostate |
